Our source for the binding values is PMC3604122.

Protein sequences, listed by entry. Tags and fused reporters are not part of them. Lines headed by an entry give the natural chain unless they say otherwise; changes in a name come on top.
UniProt M4Y9G5: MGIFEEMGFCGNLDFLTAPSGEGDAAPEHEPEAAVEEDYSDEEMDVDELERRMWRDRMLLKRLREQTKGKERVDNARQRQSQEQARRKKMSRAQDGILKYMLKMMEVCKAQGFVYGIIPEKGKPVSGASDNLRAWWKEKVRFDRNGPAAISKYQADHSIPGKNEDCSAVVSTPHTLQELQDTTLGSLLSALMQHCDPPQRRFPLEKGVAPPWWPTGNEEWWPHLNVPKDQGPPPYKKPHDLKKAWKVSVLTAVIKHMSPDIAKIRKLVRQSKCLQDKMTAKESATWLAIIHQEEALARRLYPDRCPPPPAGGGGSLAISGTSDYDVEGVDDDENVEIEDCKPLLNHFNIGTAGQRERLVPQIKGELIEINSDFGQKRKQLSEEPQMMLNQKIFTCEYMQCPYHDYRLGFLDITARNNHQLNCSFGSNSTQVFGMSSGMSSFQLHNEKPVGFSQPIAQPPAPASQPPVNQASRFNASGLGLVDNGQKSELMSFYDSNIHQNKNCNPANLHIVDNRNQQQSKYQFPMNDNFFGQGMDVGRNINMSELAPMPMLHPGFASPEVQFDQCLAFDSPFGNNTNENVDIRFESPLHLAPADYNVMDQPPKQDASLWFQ
UniProt D9ZIM1: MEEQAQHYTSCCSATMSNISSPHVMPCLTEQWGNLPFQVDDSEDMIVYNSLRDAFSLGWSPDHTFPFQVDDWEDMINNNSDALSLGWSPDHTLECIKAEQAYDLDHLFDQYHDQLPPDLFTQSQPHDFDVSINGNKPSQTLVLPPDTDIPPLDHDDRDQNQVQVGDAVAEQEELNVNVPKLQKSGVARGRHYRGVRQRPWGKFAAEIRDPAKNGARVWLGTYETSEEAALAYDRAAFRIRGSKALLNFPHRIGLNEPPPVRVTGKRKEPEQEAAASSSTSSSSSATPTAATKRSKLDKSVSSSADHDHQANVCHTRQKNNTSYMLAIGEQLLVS
UniProt D9ZIM0: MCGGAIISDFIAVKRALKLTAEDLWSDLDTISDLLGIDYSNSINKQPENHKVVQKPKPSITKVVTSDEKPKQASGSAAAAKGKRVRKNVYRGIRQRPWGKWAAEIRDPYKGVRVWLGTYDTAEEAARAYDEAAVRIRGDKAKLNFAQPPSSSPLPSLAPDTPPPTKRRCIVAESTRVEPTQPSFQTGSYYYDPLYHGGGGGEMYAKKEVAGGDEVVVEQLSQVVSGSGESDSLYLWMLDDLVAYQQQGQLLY

The assay has as its target ZMdEIL2 (apple (Malus x domestica), cultivar 'Taishanzaoxia') (UniProt M4Y9G5). Put plainly: split reporter; BiFC: X-nYFP and cYFP-X fusions co-infiltrated by Agrobacterium into the same onion epidermis cells, 24°C for 48 h, YFP signal read with a confocal microscope.

Results are given in words; binding and its absence hold for the method and conditions named. Binding seen in cells or lysates may run through a third protein. A result given as binding can be weak or reduced; the word gives no strength.

With ZMdERF2 (from UniProt D9ZIM1), the binding entry is “binds”.
For the substance ZMdERF1 (from UniProt D9ZIM0), the binding result is on record as “binds”.
